Earlier results as cited in US20260167740A1, “MEANS AND METHODS FOR TREATING CASTRATION-RESISTANT PROSTATE CANCER” (Merus N.V., priority 2022, published 2026).
At least one structure is not confirmed: it was looked up by name or label, or the drawing left a doubt.

Tested on: castration-resistant prostate cancer
Settings: CRPC / hormone refractory prostate cancer; phase II trials (Ziada et al. 2004; Molife et al. 2014); cited from earlier work

CN(C)C/C=C/C(=O)Nc1cc2c(Nc3ccc(F)c(Cl)c3)ncnc2cc1O[C@H]1CCOC1 [afatinib]
antitumor activity in the clinical setting: failure to demonstrate antitumor activity
